Measured values as given in US20100331282A1, “PYRIDINE DERIVATIVE CONTAINING ((PHOSPHONOOXY)METHYL)PYRIDINIUM RING, AND ANTIFUNGAL AGENT CONTAINING THESE DERIVATIVE” (priority 2009, published 2010).
At least one compound was matched to its structure with a doubt left.

Test: Conversion into parent compound in reaction buffer solution without liver S9 fraction (control)
Type: physicochemical
Settings: pH 7.4, 37° C., 0, 30, 60 minutes, LC-MS (FIG. 3)

Nc1ncccc1-c1cc(Cc2ccc(OCc3cccc[n+]3COP(=O)([O-])O)cc2)no1 [Example 1, 2-((4-((5-(2-Amino-3-pyridinyl)-3-isoxazolyl)methyl)phenoxy)methyl)-1-((phosphonooxy)methyl)pyridinium mono-trifluoroacetate]
Conversion into the parent compound (compound of Reference Example 1): no conversion
